Experimental data published in publication PMC8184944, “Crystal structures of aconitase X enzymes from bacteria and archaea provide insights into the molecular evolution of the aconitase superfamily” (Communications Biology, 2021).
Results are given in words; binding and its absence hold for the method and conditions named. Some results given as binding are weak or reduced against the parent protein; the word gives no strength. Where a sequence is shown, tags or fusion partners need not be part of it.

Experiments:
[1] = target: T1, TkAcnXS, small subunit of aconitase X (AcnX Type-IIb) from Thermococcus kodakarensis, (His)6-tag removed (Thermococcus kodakarensis) (UniProt Q5JGJ7); experiment: crystal structure; TkAcnX apo-form, 3.4 Å; 200 mM ammonium citrate tribasic pH 7.0, 24% PEG 3350, 20°C; both purified
T1 sequence: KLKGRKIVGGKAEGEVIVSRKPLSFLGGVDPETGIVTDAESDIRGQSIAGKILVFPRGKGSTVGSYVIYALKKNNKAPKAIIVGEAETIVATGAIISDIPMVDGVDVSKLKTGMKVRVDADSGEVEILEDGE

[2] = target: T1, TkAcnXS, small subunit of aconitase X (AcnX Type-IIb) from Thermococcus kodakarensis, (His)6-tag removed (Thermococcus kodakarensis); experiment: SEC; gel filtration of purified TkAcnX; HiLoad 16/600 Superdex 200 pg, 20 mM Tris-HCl pH 8.0, 150 mM NaCl; native mass estimated; both purified
[3] = target: T1, TkAcnXS, small subunit of aconitase X (AcnX Type-IIb) from Thermococcus kodakarensis, (His)6-tag removed (Thermococcus kodakarensis); experiment: crystal structure; TkAcnX co-crystallised with 40 mM MVA5P, 1.9 Å; 50 mM ammonium sulfate, 50 mM Bis-Tris pH 6.5, 30% pentaerythritol ethoxylate, 20°C; both purified
[4] = target: T2, TkAcnXS, small subunit of aconitase X (AcnX Type-IIb) from Thermococcus kodakarensis, with a (His)6-tag at the N terminus (Thermococcus kodakarensis) (UniProt Q5JGJ7); experiment: co-purification by nickel-chelating affinity chromatography; both subunits co-expressed in E. coli; (His)6-TkAcnXS held on Ni-NTA Superflow; 50 mM sodium phosphate pH 8.0, 300 mM NaCl, imidazole; SDS-PAGE of the eluate
T2 sequence: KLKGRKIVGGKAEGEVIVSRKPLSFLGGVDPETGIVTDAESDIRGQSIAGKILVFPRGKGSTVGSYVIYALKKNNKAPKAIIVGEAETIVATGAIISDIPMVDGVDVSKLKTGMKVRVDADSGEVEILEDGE

Measured: binding

B1: TkAcnXL, large subunit of aconitase X (AcnX Type-IIb) from Thermococcus kodakarensis (protein, UniProt Q5JGJ6 1-386)
chain: MYLTKEEELILAGEYGYALQKAMEILVALGDIYGADRLIPIKSAQVAGVSYKNIGDAGIEFLRDFVEAGAKVSVYTTLNPAGIGDDEFMEKQMEVLELYRKMGIEVTSTCTPYYGANLPKFGDHIAWSESSAVSFANSILGARTNREGGPSSLAAAIVGKTPNYGLHLDENRKATVIVDVKAKVKTFADYSVLGYHVGKTLGNDVPYFKNLKPEKTEFLKELGAAMGATGSIALYHVEGETPEYREAITDKLETITVEDSDLKAVRESFQDDWSDIDMILIGCPHASLPEVKEIAELLRMRGKPLKIPLFITASRAVKALADALGYTEIIERYNGKIIPDSCFVVSPIKGWYRGIATNSGKSAFYFRSFGFSVRLDDVENLIKEAP
binds: all assays above
